Test results reported in the supplement of paper PMC12067093, “Discovery and optimisation of a covalent ligand for TRIM25 and its application to targeted protein ubiquitination” (Chemical Science, 2025).
The list shows a part of the results.

Amino acid sequences for entries named in this document (tags omitted). A change or cut given only in a name is not applied to a line headed by its entry.
UniProt Q9ULE6: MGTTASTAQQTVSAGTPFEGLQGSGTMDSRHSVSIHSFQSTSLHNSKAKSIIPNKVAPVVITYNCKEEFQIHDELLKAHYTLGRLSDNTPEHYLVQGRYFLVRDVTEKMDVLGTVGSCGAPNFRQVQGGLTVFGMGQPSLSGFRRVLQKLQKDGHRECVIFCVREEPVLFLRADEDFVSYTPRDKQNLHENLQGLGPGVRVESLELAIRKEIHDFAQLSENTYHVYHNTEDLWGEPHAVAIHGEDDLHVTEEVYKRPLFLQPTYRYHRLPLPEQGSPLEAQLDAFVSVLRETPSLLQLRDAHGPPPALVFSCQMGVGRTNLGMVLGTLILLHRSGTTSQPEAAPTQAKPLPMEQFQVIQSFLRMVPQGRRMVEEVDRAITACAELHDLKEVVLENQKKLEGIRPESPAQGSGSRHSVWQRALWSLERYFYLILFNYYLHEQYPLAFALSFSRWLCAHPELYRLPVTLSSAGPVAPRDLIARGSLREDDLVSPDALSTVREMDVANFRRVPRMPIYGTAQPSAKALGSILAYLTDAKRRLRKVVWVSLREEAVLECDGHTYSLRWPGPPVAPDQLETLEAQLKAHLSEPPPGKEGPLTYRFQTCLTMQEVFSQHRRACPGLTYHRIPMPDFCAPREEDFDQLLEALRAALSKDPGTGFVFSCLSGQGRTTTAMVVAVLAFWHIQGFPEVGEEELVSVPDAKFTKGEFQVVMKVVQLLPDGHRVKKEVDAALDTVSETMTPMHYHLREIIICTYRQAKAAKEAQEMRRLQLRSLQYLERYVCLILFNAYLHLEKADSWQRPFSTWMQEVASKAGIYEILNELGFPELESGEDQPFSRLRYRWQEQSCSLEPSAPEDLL
UniProt Q460N5, whole entry, looked up: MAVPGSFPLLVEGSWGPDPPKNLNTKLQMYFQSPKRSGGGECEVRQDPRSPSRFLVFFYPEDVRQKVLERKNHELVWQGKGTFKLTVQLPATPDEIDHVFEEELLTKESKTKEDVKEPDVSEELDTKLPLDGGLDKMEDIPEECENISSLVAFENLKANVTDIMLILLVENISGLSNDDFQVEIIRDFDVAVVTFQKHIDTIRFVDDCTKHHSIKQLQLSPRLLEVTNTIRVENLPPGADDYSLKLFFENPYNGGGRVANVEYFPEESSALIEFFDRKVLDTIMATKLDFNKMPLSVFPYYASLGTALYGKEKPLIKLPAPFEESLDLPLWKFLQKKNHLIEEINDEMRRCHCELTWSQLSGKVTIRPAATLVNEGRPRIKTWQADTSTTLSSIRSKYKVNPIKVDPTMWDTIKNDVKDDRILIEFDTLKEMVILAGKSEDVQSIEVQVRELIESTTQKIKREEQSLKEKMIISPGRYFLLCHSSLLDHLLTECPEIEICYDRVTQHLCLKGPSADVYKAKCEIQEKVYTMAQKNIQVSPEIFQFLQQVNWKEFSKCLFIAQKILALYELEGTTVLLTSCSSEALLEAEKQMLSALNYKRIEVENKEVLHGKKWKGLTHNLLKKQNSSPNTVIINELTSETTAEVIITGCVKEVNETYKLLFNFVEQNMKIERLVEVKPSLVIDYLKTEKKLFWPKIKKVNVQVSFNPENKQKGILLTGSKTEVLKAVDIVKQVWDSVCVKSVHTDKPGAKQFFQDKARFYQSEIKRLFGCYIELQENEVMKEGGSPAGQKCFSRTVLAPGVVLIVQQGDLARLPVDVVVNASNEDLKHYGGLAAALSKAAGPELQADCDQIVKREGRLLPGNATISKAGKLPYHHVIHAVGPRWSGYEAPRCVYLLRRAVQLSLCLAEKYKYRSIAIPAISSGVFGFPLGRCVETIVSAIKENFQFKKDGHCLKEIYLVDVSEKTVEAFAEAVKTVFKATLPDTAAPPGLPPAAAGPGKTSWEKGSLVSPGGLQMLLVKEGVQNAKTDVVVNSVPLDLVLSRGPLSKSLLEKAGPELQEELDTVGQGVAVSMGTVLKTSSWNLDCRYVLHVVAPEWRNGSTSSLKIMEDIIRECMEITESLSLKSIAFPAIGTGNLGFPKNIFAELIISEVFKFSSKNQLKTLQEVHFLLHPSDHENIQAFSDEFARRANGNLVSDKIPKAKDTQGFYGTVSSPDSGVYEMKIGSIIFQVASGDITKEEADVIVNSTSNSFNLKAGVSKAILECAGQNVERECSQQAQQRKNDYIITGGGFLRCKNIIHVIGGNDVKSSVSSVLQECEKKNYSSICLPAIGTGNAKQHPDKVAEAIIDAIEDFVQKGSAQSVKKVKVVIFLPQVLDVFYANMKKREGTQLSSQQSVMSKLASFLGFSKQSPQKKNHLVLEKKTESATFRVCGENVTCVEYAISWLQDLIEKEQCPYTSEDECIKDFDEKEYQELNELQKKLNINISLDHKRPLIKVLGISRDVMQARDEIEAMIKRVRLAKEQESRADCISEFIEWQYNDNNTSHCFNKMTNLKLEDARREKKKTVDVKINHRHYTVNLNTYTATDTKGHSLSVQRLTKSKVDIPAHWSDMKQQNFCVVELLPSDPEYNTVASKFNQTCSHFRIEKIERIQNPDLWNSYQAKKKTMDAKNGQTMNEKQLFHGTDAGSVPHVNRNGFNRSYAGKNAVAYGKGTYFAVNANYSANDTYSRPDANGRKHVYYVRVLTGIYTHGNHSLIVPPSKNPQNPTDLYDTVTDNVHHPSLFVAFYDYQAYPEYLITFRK
UniProt Q86VP3, whole entry: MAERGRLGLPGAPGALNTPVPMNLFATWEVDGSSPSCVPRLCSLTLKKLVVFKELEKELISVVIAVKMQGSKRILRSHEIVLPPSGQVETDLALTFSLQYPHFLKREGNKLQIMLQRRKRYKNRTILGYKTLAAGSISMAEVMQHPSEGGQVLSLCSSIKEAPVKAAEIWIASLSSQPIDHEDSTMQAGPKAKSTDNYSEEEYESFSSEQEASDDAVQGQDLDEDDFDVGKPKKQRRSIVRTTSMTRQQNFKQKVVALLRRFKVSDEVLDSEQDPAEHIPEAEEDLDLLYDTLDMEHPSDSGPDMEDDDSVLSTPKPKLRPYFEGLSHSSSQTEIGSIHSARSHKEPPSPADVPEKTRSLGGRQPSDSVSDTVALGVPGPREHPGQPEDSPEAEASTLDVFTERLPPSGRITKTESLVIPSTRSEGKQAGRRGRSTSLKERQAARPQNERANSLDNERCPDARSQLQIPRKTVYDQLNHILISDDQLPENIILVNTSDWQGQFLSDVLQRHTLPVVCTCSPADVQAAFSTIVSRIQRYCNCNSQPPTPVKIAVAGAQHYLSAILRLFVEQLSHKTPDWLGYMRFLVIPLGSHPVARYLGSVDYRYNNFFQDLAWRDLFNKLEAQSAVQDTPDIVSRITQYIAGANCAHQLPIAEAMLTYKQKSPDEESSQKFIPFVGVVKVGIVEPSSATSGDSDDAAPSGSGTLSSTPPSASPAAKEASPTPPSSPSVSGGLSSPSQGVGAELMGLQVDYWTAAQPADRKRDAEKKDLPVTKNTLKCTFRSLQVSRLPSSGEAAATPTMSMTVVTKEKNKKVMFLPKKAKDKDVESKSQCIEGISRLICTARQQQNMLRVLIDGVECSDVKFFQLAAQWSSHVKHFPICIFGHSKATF
UniProt Q9H4L5: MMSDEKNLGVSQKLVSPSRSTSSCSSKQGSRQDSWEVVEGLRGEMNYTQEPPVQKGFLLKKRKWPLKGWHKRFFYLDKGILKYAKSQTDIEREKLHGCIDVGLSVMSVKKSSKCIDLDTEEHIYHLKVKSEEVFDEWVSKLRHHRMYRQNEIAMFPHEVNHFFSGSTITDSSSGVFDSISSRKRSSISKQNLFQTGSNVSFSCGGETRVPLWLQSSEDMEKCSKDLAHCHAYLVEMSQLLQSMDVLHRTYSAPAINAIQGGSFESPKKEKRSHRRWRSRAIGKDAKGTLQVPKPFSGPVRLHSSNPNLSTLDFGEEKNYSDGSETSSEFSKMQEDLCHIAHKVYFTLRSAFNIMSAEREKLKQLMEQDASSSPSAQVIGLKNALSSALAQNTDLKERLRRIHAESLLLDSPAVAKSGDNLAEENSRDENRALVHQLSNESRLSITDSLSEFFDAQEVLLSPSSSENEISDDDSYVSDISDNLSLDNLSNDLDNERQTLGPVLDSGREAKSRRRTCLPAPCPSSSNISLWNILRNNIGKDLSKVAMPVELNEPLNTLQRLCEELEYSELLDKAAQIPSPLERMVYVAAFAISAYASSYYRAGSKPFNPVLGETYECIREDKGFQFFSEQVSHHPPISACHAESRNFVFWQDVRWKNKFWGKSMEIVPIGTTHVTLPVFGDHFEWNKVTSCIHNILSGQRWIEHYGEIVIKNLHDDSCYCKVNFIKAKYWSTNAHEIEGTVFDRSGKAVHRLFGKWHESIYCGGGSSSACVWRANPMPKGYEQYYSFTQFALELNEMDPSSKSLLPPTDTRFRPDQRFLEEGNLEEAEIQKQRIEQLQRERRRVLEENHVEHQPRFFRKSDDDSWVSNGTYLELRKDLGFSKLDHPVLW
UniProt Q13177, whole entry: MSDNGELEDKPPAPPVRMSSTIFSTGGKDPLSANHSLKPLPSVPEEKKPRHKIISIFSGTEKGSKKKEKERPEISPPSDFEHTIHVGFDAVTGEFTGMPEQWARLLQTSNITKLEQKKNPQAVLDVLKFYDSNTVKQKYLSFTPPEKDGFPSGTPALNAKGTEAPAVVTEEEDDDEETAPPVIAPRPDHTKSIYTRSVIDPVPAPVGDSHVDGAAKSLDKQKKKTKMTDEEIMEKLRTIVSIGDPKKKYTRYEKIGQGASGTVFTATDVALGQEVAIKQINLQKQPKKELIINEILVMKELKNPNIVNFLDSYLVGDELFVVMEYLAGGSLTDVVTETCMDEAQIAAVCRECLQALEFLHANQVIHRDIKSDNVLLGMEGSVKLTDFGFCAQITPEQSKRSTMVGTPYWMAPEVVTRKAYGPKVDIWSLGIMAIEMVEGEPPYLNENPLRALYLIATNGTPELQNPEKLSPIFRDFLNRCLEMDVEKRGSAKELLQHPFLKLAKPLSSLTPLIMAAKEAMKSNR
UniProt Q32P28: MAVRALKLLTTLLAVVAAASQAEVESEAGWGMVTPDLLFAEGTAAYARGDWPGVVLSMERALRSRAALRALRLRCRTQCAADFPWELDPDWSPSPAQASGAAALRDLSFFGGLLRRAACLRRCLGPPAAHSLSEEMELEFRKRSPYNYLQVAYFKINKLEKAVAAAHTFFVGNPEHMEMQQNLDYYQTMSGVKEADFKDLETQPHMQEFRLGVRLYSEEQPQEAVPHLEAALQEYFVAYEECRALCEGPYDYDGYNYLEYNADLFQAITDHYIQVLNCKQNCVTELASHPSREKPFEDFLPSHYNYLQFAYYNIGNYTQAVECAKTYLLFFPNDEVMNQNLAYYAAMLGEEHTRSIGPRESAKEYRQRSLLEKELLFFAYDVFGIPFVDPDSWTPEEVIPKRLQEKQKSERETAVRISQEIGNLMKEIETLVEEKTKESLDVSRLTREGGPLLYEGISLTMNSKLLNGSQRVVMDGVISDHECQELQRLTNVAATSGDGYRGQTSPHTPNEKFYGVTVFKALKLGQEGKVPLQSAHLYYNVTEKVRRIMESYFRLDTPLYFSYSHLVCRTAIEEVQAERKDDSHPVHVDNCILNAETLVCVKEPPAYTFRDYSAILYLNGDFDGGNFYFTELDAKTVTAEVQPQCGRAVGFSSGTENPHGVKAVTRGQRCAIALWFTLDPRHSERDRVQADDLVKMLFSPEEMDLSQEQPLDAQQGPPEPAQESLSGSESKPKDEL
UniProt Q9Y2J8, whole entry, looked up: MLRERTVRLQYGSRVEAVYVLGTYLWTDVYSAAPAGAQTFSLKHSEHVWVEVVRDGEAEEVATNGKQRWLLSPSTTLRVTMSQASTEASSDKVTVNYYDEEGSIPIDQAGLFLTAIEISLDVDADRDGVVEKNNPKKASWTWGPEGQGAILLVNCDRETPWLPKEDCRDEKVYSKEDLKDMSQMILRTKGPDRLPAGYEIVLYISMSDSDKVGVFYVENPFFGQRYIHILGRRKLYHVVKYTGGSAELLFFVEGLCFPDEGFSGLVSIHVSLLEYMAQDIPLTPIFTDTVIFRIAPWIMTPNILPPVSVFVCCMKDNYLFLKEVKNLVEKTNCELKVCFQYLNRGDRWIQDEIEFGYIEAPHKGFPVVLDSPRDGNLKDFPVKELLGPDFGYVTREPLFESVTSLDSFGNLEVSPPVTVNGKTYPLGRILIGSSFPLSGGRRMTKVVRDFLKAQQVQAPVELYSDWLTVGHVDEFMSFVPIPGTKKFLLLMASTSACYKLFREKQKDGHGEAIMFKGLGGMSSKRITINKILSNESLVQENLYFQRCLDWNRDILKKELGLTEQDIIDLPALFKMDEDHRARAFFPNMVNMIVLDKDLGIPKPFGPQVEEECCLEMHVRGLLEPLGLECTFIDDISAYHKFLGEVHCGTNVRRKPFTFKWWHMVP
UniProt Q92882: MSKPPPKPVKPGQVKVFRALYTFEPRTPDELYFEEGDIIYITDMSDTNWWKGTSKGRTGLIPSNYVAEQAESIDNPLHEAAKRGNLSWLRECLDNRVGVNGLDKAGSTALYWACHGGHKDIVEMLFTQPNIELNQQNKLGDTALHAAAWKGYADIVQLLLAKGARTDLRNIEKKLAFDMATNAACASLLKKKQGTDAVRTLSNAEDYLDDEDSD

Compound: Cc1cc(ccc1-c1ccccc1)C(=O)N1CCCN(CC1)C(=O)CCl [compound 10]
Experiment: probe-labelled cysteine peptide fold change vs DMSO (competition) (log2 fold change); higher = less target engagement (more negative = stronger competition)
Conditions: THP-1, incubation time: 4 h
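Note: competitive profiling in live THP-1 cells: cysteine peptides tagged with an iodoacetamide desthiobiotin (IA-DTB) probe, intensity after compound treatment relative to DMSO-treated cells.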

| Target | probe-labelled cysteine peptide fold change (10 µM) | probe-labelled cysteine peptide fold change (50 µM) |
| --- | --- | --- |
| PALD1_Q9ULE6_65_VAPVVITYNCK (UniProt Q9ULE6) | 0.106 | -0.15 |
| ORC3_Q9UBD5_363_INFLSNNQCENIR (UniProt Q9UBD5) | -0.0787 | -0.0975 |
| PARP14_Q460N5_849_AAGPELQADCDQIVKR (UniProt Q460N5) | -0.298 | -0.644 |
| PACS2_Q86VP3_880_HFPICIFGHSK (UniProt Q86VP3) | -0.181 | -0.0895 |
| OSBPL3_Q9H4L5_114_CIDLDTEEHIYHLK (UniProt Q9H4L5) | -0.107 | 0.0518 |
| PAK2_Q13177_352_ECLQALEFLHANQVIHR (UniProt Q13177) | 0.441 | 0.0289 |
| P4HTM_Q9NXG6_156_TLSLKPLLFEIPGFLTDEECR (UniProt Q9NXG6) | 0.0255 | -0.0987 |
| PARP1_P09874_295_VADGMVFGALLPCEECSGQLVFK (UniProt P09874) | -0.0751 | 0.196 |
| P3H1_Q32P28_591+600_KDDSHPVHVDNCILNAETLVCVK (UniProt Q32P28) | -0.376 | -0.0435 |
| PALD1_Q9ULE6_555_EEAVLECDGHTYSLR (UniProt Q9ULE6) | -0.126 | 0.408 |
| PARP14_Q460N5_42_RSGGGECEVR (UniProt Q460N5) | -0.0775 | 0.0168 |
| ORC1_Q13415_529_LLDHTGGCMYISGVPGTGK (UniProt Q13415) | 0.15 | -0.0714 |
| P3H1_Q32P28_670_CAIALWFTLDPR (UniProt Q32P28) | -0.244 | 0.17 |
| PADI2_Q9Y2J8_647_FLGEVHCGTNVR (UniProt Q9Y2J8) | -0.0696 | 0.00601 |
| OXR1_Q8N573-2_50_EPAQGDLGCGSPPHRPPAPSSPEGPDTGQK (UniProt Q8N573) | -0.446 | -0.323 |
| PARP4_Q9UKK3_1099_LLVYGFIPHCTQATLCALIQEK (UniProt Q9UKK3) | 0.15 | 0.11 |
| OSGEP_Q9NPF4_265_AMAHCGSQEALIVGGVGCNVR (UniProt Q9NPF4) | 0.0586 | 0.134 |
| PALD1_Q9ULE6_617_ACPGLTYHR (UniProt Q9ULE6) | 0.0363 | 0.0663 |
| PARP14_Q460N5_351+353_CHCELTWSQLSGK (UniProt Q460N5) | -0.0305 | -0.488 |
| OTULIN_Q96BN8_347_VCEETSL (UniProt Q96BN8) | -0.398 | -0.113 |

Whole records, quoted from the list.
PACS2_Q86VP3_880_HFPICIFGHSK (UniProt Q86VP3) in the list: probe-labelled cysteine peptide fold change (10 µM): -0.181; probe-labelled cysteine peptide fold change (50 µM): -0.0895
PAK2_Q13177_352_ECLQALEFLHANQVIHR (UniProt Q13177) in the list: probe-labelled cysteine peptide fold change (10 µM): 0.441; probe-labelled cysteine peptide fold change (50 µM): 0.0289
OSBPL3_Q9H4L5_114_CIDLDTEEHIYHLK (UniProt Q9H4L5) in the list: probe-labelled cysteine peptide fold change (10 µM): -0.107; probe-labelled cysteine peptide fold change (50 µM): 0.0518

Next part:

| Target | probe-labelled cysteine peptide fold change (10 µM) | probe-labelled cysteine peptide fold change (50 µM) |
| --- | --- | --- |
| PAICS_P22234_81+91_CGETAFIAPQCEMIPIEWVCR (UniProt P22234) | -0.361 | 0.0615 |
| PA2G4_Q9UQ80_85_GIAFPTSISVNNCVCHFSPLK (UniProt Q9UQ80) | 0.203 | -0.024 |
| PARP10_Q53GL7_514_SLLGSISCHVLCLEHPGSAR (UniProt Q53GL7) | 0.123 | -0.198 |
| PABPC1_P11940_128_ALYDTFSAFGNILSCK (UniProt P11940) | 0.0813 | -0.0937 |
| PARK7_Q99497_53_DVVICPDASLEDAKK (UniProt Q99497) | -0.244 | -0.143 |
| P4HA1_P13674_293_QKYEMLCR (UniProt P13674) | -0.00555 | -0.202 |
| PARN_O95453_169_CPVTIPEDQK (UniProt O95453) | -0.211 | -0.153 |
| OSBPL5_Q9H0X9_253_LGTCKPGR (UniProt Q9H0X9) | -0.358 | -0.889 |
| OS9_Q13438_181_CDLNGRPR (UniProt Q13438) | -0.00915 | 0.253 |
| PAPSS1_O43252_295_EREYLQCLHFDCLLDGGVINLSVPIVLTATHEDK (UniProt O43252) | 0.223 | 0.118 |
| OSBPL2_Q9H1P3_273_CVLHFKPCGLFGK (UniProt Q9H1P3) | 0.104 | -0.02 |
| OSTF1_Q92882_185_LAFDMATNAACASLLK (UniProt Q92882) | 0.12 | 0.142 |
| PAN2_Q504Q3_745_HLPDILVINCEVNSSK (UniProt Q504Q3) | 0.0787 | 0.0627 |
| PAOX_Q6QHF9_33_LCGHSAFPHLR (UniProt Q6QHF9) | 0.266 | -0.0447 |
| P4HA2_O15460_504_HAACPVLVGCK (UniProt O15460) | -0.105 | -0.0142 |
| PAK4_O96013_462_LSDFGFCAQVSK (UniProt O96013) | 0.0919 | 0.124 |
| PARP14_Q460N5_42_SGGGECEVR (UniProt Q460N5) | -0.15 | -0.0237 |
| PAK1IP1_Q9NWT1_288_KVPPSLLCEINTNAR (UniProt Q9NWT1) | 0.0757 | 0.191 |
| OSBPL1A_Q9BXW6_56_SNLGWTPLHLACYFGHR (UniProt Q9BXW6) | 0.0173 | -0.0095 |
